Results are given in words; binding and its absence hold for the method and conditions named. Some results given as binding are weak or reduced against the parent protein; the word gives no strength.

This is an account of results in publication PMC3484135, “A Divalent Ion Is Crucial in the Structure and Dominant-Negative Function of ID Proteins, a Class of Helix-Loop-Helix Transcription Regulators” (PLoS ONE, 2012).

The assay has as its target T1, E47 HLH (residues 545–606) (UniProt P15923).
T1 sequence: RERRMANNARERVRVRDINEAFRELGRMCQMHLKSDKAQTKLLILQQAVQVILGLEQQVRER
The assay can be described thus: native gel or EMSA; ID protein serially diluted and incubated 10 min at room temperature with 0.5 uM E47 in 50 mM Tris, 300 mM NaCl, pH 8.0; Cy5-labelled E-box DNA probe and binding buffer added for 15 min; 6% Tris-glycine native gel at 4°C; bound DNA quantified; both purified.

B1: ID3 HLH (residues 36–86) (domain or fragment, UniProt Q02535 36-86)
chain: EPLSLLDDMNHCYSRLRELVPGVPRGTQLSQVEILQRVIDYILDLQVVLAE
Consider B1, for which the binding entry is “binds”.
